Laboratory results as given in paper PMC11570319.
Results are given in words; binding and its absence hold for the method and conditions named. Binding seen in cells or lysates may run through a third protein. Binding calls can cover weak binding; strength is not graded here.

Amino acid sequences for entries named in this document (tags omitted). A change or cut given only in a name is not applied to a line headed by its entry.
UniProt P06797: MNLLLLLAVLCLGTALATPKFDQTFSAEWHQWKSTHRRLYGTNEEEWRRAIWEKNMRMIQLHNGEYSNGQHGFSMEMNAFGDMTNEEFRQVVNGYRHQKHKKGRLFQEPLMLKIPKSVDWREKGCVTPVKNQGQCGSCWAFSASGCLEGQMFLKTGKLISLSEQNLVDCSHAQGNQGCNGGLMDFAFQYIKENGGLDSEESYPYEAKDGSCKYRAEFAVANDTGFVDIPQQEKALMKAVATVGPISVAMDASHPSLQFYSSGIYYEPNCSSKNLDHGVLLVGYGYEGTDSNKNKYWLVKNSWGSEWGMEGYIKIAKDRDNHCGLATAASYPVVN

Target: cathepsin L (CTSL), mouse (mouse (endogenous in BMDM)) (UniProt P06797)
Assay: proximity ligation; Duolink in situ PLA on fixed, permeabilised BMDM cells; cells treated with IAAP or SID26681509 for 6 h, then LPS (100 ng/mL) for 5 min; PLA signals per cell counted

binding: binds
B1: A20 (deubiquitinating enzyme), mouse (enzyme, UniProt Q60769 1-775)
chain: MAEQLLPQALYLSNMRKAVKIRERTPEDIFKPTNGIIYHFKTMHRYTLEMFRTCQFCPQFREIIHKALIDRSVQASLESQKKLNWCREVRKLVALKTNGDGNCLMHAACQYMWGVQDTDLVLRKALCSTLKETDTRNFKFRWQLESLKSQEFVETGLCYDTRNWNDEWDNLVKMASADTPAARSGLQYNSLEEIHIFVLSNILRRPIIVISDKMLRSLESGSNFAPLKVGGIYLPLHWPAQECYRYPIVLGYDSQHFVPLVTLKDSGPELRAVPLVNRDRGRFEDLKVHFLTDPENEMKEKLLKEYLIVMEIPVQGWDHGTTHLINAAKLDEANLPKEINLVDDYFELVQHEYKKWQENSDQARRAAHAQNPLEPSTPQLSLMDIKCETPNCPFFMSVNTQPLCHECSERRQKNQSKLPKLNSKLGPEGLPGVGLGSSNWSPEETAGGPHSAPPTAPSLFLFSETTAMKCRSPGCPFTLNVQHNGFCERCHARQINASHTADPGKCQACLQDVTRTFNGICSTCFKRTTAEPSSSLTSSIPASCHQRSKSDPSQLIQSLTPHSCHRTGNVSPSGCLSQAARTPGDRAGTSKCRKAGCMYFGTPENKGFCTLCFIEYRENKQSVTASEKAGSPAPRFQNNVPCLGRECGTLGSTMFEGYCQKCFIEAQNQRFHEARRTEEQLRSSQHRDMPRTTQVASRLKCARASCKNILACRSEELCMECQHLSQRVGSVAHRGEPTPEEPPKQRCRAPACDHFGNAKCNGYCNECYQFKQMYG
